{"source": "PubChem BioAssay AID504764 (Drosophila RNAi Screening Center, 2011)", "assay": "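Genes whose knock-down alters Notch-dependent transcription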 (primary screen)", "cell system": "Drosophila Kc167 cells", "reagent": "long dsRNA against Drosophila genes", "timing": "about 5 days (4 days dsRNA, then 24 h after transfection)", "conditions": "transfection of constitutively active membrane-tethered Notch lacking the extracellular domain, read 24 h later", "measured": "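Firefly luciferase from an E(spl)m3 reporter with active Notch, plus control-promoter and uninduced reporter wells for normalisation; unnormalised counts, duplicate wells a and b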", "direction": "induced reporter light, run 1, well a and induced reporter light, run 1, well b: higher = more light from the Notch target reporter with active Notch; control promoter light, run 1, well a and control promoter light, run 1, well b: higher = more light from the viral control promoter (cell number, transfection, viability); uninduced reporter light, run 1, well a: higher = more light from the Notch target reporter without active Notch", "active means": "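Hit if the duplicate-averaged log2 ratio of induced to control-promoter light gives a plate-wise z beyond ±2, or induced to uninduced beyond ±1.8; weak-control or discordant-duplicate wells dropped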", "meaning of the calls": "active = modifier hit (raised or lowered Notch signal); inactive = not a hit", "note": "The deposit covers about 22,000 reagents; this is an unselected part of those that have a named target and a result. In the full data, 403 (1.9%) got an active call. 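Unnormalised raw counts per well; ratio z-scores behind the hit calls and whether each hit raises or lowers signal are not deposited.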 Not stated in the record: the amount of reagent."}
{"Gene":"CG11106","amplicon":"DRSC19381","induced reporter light, run 1, well a":1.08e5,"induced reporter light, run 1, well b":1.01e5,"control promoter light, run 1, well a":1.11e5,"control promoter light, run 1, well b":1.44e5,"uninduced reporter light, run 1, well a":7945,"call":"inactive"}
{"Gene":"fus","amplicon":"DRSC05569","induced reporter light, run 1, well a":2.16e5,"induced reporter light, run 1, well b":1.96e5,"control promoter light, run 1, well a":2.84e5,"control promoter light, run 1, well b":2.39e5,"uninduced reporter light, run 1, well a":19565,"call":"inactive"}
{"Gene":"fus","amplicon":"DRSC07107","induced reporter light, run 1, well a":1.10e5,"induced reporter light, run 1, well b":98810,"control promoter light, run 1, well a":2.03e5,"control promoter light, run 1, well b":2.00e5,"uninduced reporter light, run 1, well a":9765,"call":"inactive"}
{"Gene":"GluRIA","amplicon":"DRSC11176","induced reporter light, run 1, well a":1.49e5,"induced reporter light, run 1, well b":1.80e5,"control promoter light, run 1, well a":1.82e5,"control promoter light, run 1, well b":1.77e5,"uninduced reporter light, run 1, well a":8025,"call":"inactive"}

A run of entries taken from the entries so far:
{"Gene":"CG11106","amplicon":"DRSC19381","induced reporter light, run 1, well a":1.08e5,"induced reporter light, run 1, well b":1.01e5,"control promoter light, run 1, well a":1.11e5,"control promoter light, run 1, well b":1.44e5,"uninduced reporter light, run 1, well a":7945,"call":"inactive"}
{"Gene":"fus","amplicon":"DRSC05569","induced reporter light, run 1, well a":2.16e5,"induced reporter light, run 1, well b":1.96e5,"control promoter light, run 1, well a":2.84e5,"control promoter light, run 1, well b":2.39e5,"uninduced reporter light, run 1, well a":19565,"call":"inactive"}

Next reagents follow.
{"Gene":"CG12971","amplicon":"DRSC11681","induced reporter light, run 1, well a":1.22e5,"induced reporter light, run 1, well b":1.32e5,"control promoter light, run 1, well a":92760,"control promoter light, run 1, well b":93580,"uninduced reporter light, run 1, well a":7585,"call":"inactive"}
{"Gene":"Tsp42Ep","amplicon":"DRSC06871","induced reporter light, run 1, well a":70800,"induced reporter light, run 1, well b":66090,"control promoter light, run 1, well a":62100,"control promoter light, run 1, well b":66420,"uninduced reporter light, run 1, well a":4250,"call":"inactive"}
{"Gene":"lva","amplicon":"DRSC18403","induced reporter light, run 1, well a":1.79e5,"induced reporter light, run 1, well b":1.95e5,"control promoter light, run 1, well a":2.38e5,"control promoter light, run 1, well b":2.36e5,"uninduced reporter light, run 1, well a":12105,"call":"inactive"}
{"Gene":"gogo","amplicon":"DRSC10070","induced reporter light, run 1, well a":86125,"induced reporter light, run 1, well b":1.03e5,"control promoter light, run 1, well a":1.09e5,"control promoter light, run 1, well b":1.29e5,"uninduced reporter light, run 1, well a":6240,"call":"inactive"}
{"Gene":"gogo","amplicon":"DRSC10071","induced reporter light, run 1, well a":1.14e5,"induced reporter light, run 1, well b":1.24e5,"control promoter light, run 1, well a":1.15e5,"control promoter light, run 1, well b":85630,"uninduced reporter light, run 1, well a":6210,"call":"inactive"}
{"Gene":"CG5895","amplicon":"DRSC10554","induced reporter light, run 1, well a":1.94e5,"induced reporter light, run 1, well b":2.30e5,"control promoter light, run 1, well a":2.42e5,"control promoter light, run 1, well b":2.19e5,"uninduced reporter light, run 1, well a":10678,"call":"inactive"}
{"Gene":"CG7724","amplicon":"DRSC10905","induced reporter light, run 1, well a":1.20e5,"induced reporter light, run 1, well b":1.28e5,"control promoter light, run 1, well a":91810,"control promoter light, run 1, well b":98165,"uninduced reporter light, run 1, well a":8888,"call":"inactive"}
{"Gene":"CanA-14F","amplicon":"DRSC20211","induced reporter light, run 1, well a":14800,"induced reporter light, run 1, well b":11330,"control promoter light, run 1, well a":10840,"control promoter light, run 1, well b":12340,"uninduced reporter light, run 1, well a":4465,"call":"inactive"}
